According to PubChem BioAssay AID248 (DTP/NCI, 2004):
The list does not hold the whole screen: it is rich in T/C values a quarter to a half above the control, in often repeated tests (any T/C) and in doses without a T/C. Further doses and runs are listed elsewhere. T/C: endpoint of the treated group in % of that of the vehicle group. Some doses have a count of surviving animals in place of a T/C: the source files T/C as zero there, which appears to mark a toxic dose or a test without result, not a measured value. Some doses without a T/C left all or most animals alive at the check, yet need not have been tolerated: the source hardly ever lists a survival T/C far under the control, and the zero likely stands for such cases as well. Counts of survivors are from the toxicity check (mostly the fifth day) where no day follows; animals may have died later. Schedules are NCI's codes, taken here to give the interval after Q, in days (D) or hours (H), and the number of doses after X. Some schedule codes hold Z or #, which are not explained here.

System: L1210 leukemia ip in BDF1 mice, survival T/C
Assay: NCI In Vivo Anticancer Drug Screen. Data for tumor model L1210 Leukemia (intraperitoneal) in B6D2F1 (BDF1) mice
Details: T/C endpoint: mean survival time, higher T/C = longer survival
[1] = dose: 200.0 mg/kg/injection, schedule: Q01DX001 (ip), vehicle: saline
[2] = dose: 400.0 mg/kg/injection, schedule: Q01DX001 (ip), vehicle: saline
[3] = dose: 80.0 mg/kg/injection, schedule: Q01DX001 (ip), vehicle: saline
[4] = dose: 100.0 mg/kg/injection, schedule: Q01DX001 (ip), vehicle: saline

With `Cc1cc(=O)[nH]c(C(F)(F)F)n1` the survivor count (dose: 44.0 mg/kg/injection, schedule: Q01DX Z (ip), vehicle: methylcellulose (MC)) was 6 of 6, the survivor count (dose: 66.0 mg/kg/injection, schedule: Q01DX Z (ip), vehicle: methylcellulose (MC)) was 6 of 6 and the survivor count (dose: 100.0 mg/kg/injection, schedule: Q01DX Z (ip), vehicle: methylcellulose (MC)) was 6 of 6.
For `CCOC(=O)Nc1cc(NC(C)CCCN(CC)CC)c2nc(-c3ccccc3)c(-c3ccccc3)nc2n1` (stereo not given), the survivor count [1] was 3 of 6 and the survivor count [2] was 0 of 6.
With `C[N+](C)(CCc1ccccc1)CC(O)COc1ccccc1` (stereo not given) the survivor count (dose: 37.5 mg/kg/injection, schedule: Q04DX003 (ip), vehicle: Klucel (hydroxypropylcellulose) (HPC)) was 3 of 6 and the survivor count (dose: 75.0 mg/kg/injection, schedule: Q04DX003 (ip), vehicle: Klucel (hydroxypropylcellulose) (HPC)) was 0 of 6.
For `CC1(C)CCCC/C1=N\NC(N)=O`, the survivor count (dose: 300.0 mg/kg/injection, schedule: Q04DX003 (ip), vehicle: saline sonified) was 0 of 6.
`Cn1cc(C2=CC(=O)C=CC2=O)c2ccccc21` was tested, and the survivor count (dose: 50.0 mg/kg/injection, schedule: Q01DX001 (ip), vehicle: saline) was 2 of 4, the survivor count [3] was 0 of 4 and the survivor count [4] was 0 of 4. The survivor count [1] was 0 of 4 and the survivor count [2] was 0 of 4.
With `CCN=C(Nc1ccccc1)c1ccc(C(=NCC)Nc2ccccc2)cc1` the survivor count (dose: 15.0 mg/kg/injection, schedule: Q01DX Z (ip), vehicle: carboxymethylcellulose (CMC)) was 0 of 6, the survivor count (dose: 30.0 mg/kg/injection, schedule: Q01DX Z (ip), vehicle: carboxymethylcellulose (CMC)) was 0 of 6 and the survivor count (dose: 60.0 mg/kg/injection, schedule: Q01DX Z (ip), vehicle: carboxymethylcellulose (CMC)) was 0 of 6. The survivor count (dose: 120.0 mg/kg/injection, schedule: Q01DX Z (ip), vehicle: carboxymethylcellulose (CMC)) was 0 of 6.
With `CNc1ncnc2c1cnn2C` the survivor count (dose: 160.0 mg/kg/injection, schedule: Q01DX015 (ip), vehicle: carboxymethylcellulose (CMC)) was 2 of 6 and the survivor count (dose: 320.0 mg/kg/injection, schedule: Q01DX015 (ip), vehicle: carboxymethylcellulose (CMC)) was 0 of 6.
In the case of `NC(=O)C(O)C(O)C(O)C(O)C(N)=O` (stereo not given), the survivor count (dose: 400.0 mg/kg/injection, schedule: Q04DX003 (ip), vehicle: saline) was 0 of 6.
`CN(C)c1ccc2nc3c(C(=O)O)cc(=O)c(O)c-3oc2c1` was tested, and the survivor count (dose: 200.0 mg/kg/injection, schedule: Q01DX001 (ip), vehicle: carboxymethylcellulose (CMC)) was 2 of 4 and the survivor count (dose: 400.0 mg/kg/injection, schedule: Q01DX001 (ip), vehicle: carboxymethylcellulose (CMC)) was 0 of 4.
`Cc1ccc2c(c1)-c1[nH]c3ccccc3c1CS2` was tested, and the survivor count (dose: 400.0 mg/kg/injection, schedule: Q04DX003 (ip), vehicle: acetone) was 0 of 6.
For `CC(=O)c1ccc(N=C(N)N=C(N)N)cc1`, the survivor count (dose: 300.0 mg/kg/injection, schedule: Q01DX001 (ip), vehicle: carboxymethylcellulose (CMC)) was 1 of 6.
With `FCCNCCF` the survivor count (dose: 20.0 mg/kg/injection, schedule: Q01DX001 (ip), vehicle: saline) was 0 of 4, the survivor count (dose: 40.0 mg/kg/injection, schedule: Q01DX001 (ip), vehicle: saline) was 0 of 4 and the survivor count [3] was 0 of 4. The survivor count [4] was 0 of 4, the survivor count [1] was 0 of 4 and the survivor count [2] was 0 of 4.
